PubChem BioAssay AID1159597 – NIAID – 2016
This is a random part of 756 reagents tested. 140 of all reagents (19%) count as active. 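Calls mark clear shifts in either direction, lowered or raised; calls are per siRNA, gene-level medians over six siRNAs not deposited.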 Reagents against one gene are numbered here. Not given: the amount of reagent.

- Screen: 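Knock-downs that change TNF-alpha promoter reporter output after LPS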
- Cell system: human THP-1 B5 reporter clone (monocytic leukaemia line), PMA-differentiated to macrophage-like cells
- Reagents: single siRNA against human genes
- Time to read-out: LPS for 4 h before read-out; assayed 48 to 72 h after siRNA transfection
- Conditions: LPS (Salmonella minnesota R595) for 4 h; concentration not given
- Read-out: 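After 4 h LPS, firefly TNF promoter luciferase over renilla, as a plate median/MAD robust z-score averaged across replicates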
- Scale: TNF reporter z-score: higher = stronger TNF promoter activity after LPS
- Active means: In these data the active calls have TNF reporter z-score, replicate mean at about -1.5 or lower, or at about 1.53 or higher
- Meaning of the calls: active = clear shift in reporter, either direction; inactive = little shift in reporter

gene | reagent no. | TNF reporter z-score, replicate mean | Outcome
IKBKE (inhibitor of nuclear factor kappa B kinase subunit epsilon) | 1 | 0.721 | inactive
IKBKE (inhibitor of nuclear factor kappa B kinase subunit epsilon) | 2 | -1.19 | inactive
IKBKE (inhibitor of nuclear factor kappa B kinase subunit epsilon) | 3 | 0.397 | inactive
IKBKE (inhibitor of nuclear factor kappa B kinase subunit epsilon) | 4 | 1.17 | inactive
IKBKE (inhibitor of nuclear factor kappa B kinase subunit epsilon) | 5 | -2.63 | active
IKBKE (inhibitor of nuclear factor kappa B kinase subunit epsilon) | 6 | -2.62 | active
ARF6 (ARF GTPase 6) | 1 | -0.585 | inactive
ARF6 (ARF GTPase 6) | 2 | 0.0317 | inactive
ARF6 (ARF GTPase 6) | 3 | 0.372 | inactive
ARF6 (ARF GTPase 6) | 4 | -0.916 | inactive
ARF6 (ARF GTPase 6) | 5 | 1.23 | inactive
ARF6 (ARF GTPase 6) | 6 | 0.685 | inactive
IL12A (interleukin 12A) | 1 | 0.179 | inactive
IL12A (interleukin 12A) | 2 | 0.104 | inactive
IL12A (interleukin 12A) | 3 | -3.37 | active
IL12A (interleukin 12A) | 4 | -0.376 | inactive
IL12A (interleukin 12A) | 5 | -1.33 | inactive
IL12A (interleukin 12A) | 6 | -0.36 | inactive
TAB1 (TGF-beta activated kinase 1 (MAP3K7) binding protein 1) | 1 | -0.789 | inactive
TAB1 (TGF-beta activated kinase 1 (MAP3K7) binding protein 1) | 2 | -1.07 | inactive
TAB1 (TGF-beta activated kinase 1 (MAP3K7) binding protein 1) | 3 | -0.0413 | inactive
TAB1 (TGF-beta activated kinase 1 (MAP3K7) binding protein 1) | 4 | -1.04 | inactive
TAB1 (TGF-beta activated kinase 1 (MAP3K7) binding protein 1) | 5 | -0.361 | inactive
TAB1 (TGF-beta activated kinase 1 (MAP3K7) binding protein 1) | 6 | -1.7 | active
TNFAIP3 (TNF alpha induced protein 3) | 1 | -2.78 | active
TNFAIP3 (TNF alpha induced protein 3) | 2 | -0.511 | inactive
TNFAIP3 (TNF alpha induced protein 3) | 3 | -2.32 | active
TNFAIP3 (TNF alpha induced protein 3) | 4 | -0.162 | inactive
TNFAIP3 (TNF alpha induced protein 3) | 5 | 1.2 | inactive
TNFAIP3 (TNF alpha induced protein 3) | 6 | -1.14 | inactive
EGR1 (early growth response 1) | 1 | -1.62 | active
EGR1 (early growth response 1) | 2 | -2.62 | active
EGR1 (early growth response 1) | 3 | -3.13 | active
EGR1 (early growth response 1) | 4 | -0.743 | inactive
EGR1 (early growth response 1) | 5 | 0.538 | inactive
EGR1 (early growth response 1) | 6 | -0.674 | inactive
CASP8 (caspase 8) | 1 | -0.498 | inactive
CASP8 (caspase 8) | 2 | -0.274 | inactive
CASP8 (caspase 8) | 3 | -0.149 | inactive
CASP8 (caspase 8) | 4 | -0.322 | inactive
CASP8 (caspase 8) | 5 | 0.246 | inactive
CASP8 (caspase 8) | 6 | -1.39 | inactive
FADD (Fas associated via death domain) | 1 | 0.237 | inactive
FADD (Fas associated via death domain) | 2 | -0.55 | inactive
FADD (Fas associated via death domain) | 3 | -0.0423 | inactive
FADD (Fas associated via death domain) | 4 | -1.07 | inactive
FADD (Fas associated via death domain) | 5 | -0.712 | inactive
FADD (Fas associated via death domain) | 6 | -2.13 | active
TBKBP1 (TBK1 binding protein 1) | 1 | 0.246 | inactive
TBKBP1 (TBK1 binding protein 1) | 2 | 0.935 | inactive
TBKBP1 (TBK1 binding protein 1) | 3 | 1.14 | inactive
TBKBP1 (TBK1 binding protein 1) | 4 | 1.28 | inactive
TBKBP1 (TBK1 binding protein 1) | 5 | 0.629 | inactive
TBKBP1 (TBK1 binding protein 1) | 6 | -0.112 | inactive
OTUD5 (OTU deubiquitinase 5) | 1 | 0.384 | inactive
OTUD5 (OTU deubiquitinase 5) | 2 | -1.92 | active
OTUD5 (OTU deubiquitinase 5) | 3 | -1.2 | inactive
OTUD5 (OTU deubiquitinase 5) | 4 | -0.842 | inactive
OTUD5 (OTU deubiquitinase 5) | 5 | -1.81 | active
OTUD5 (OTU deubiquitinase 5) | 6 | -0.817 | inactive
PIK3R2 (phosphoinositide-3-kinase regulatory subunit 2) | 1 | -0.645 | inactive
PIK3R2 (phosphoinositide-3-kinase regulatory subunit 2) | 2 | -1.32 | inactive
PIK3R2 (phosphoinositide-3-kinase regulatory subunit 2) | 3 | 0.223 | inactive
PIK3R2 (phosphoinositide-3-kinase regulatory subunit 2) | 4 | -1.25 | inactive
PIK3R2 (phosphoinositide-3-kinase regulatory subunit 2) | 5 | -0.309 | inactive
PIK3R2 (phosphoinositide-3-kinase regulatory subunit 2) | 6 | -0.43 | inactive
AKT1 (AKT serine/threonine kinase 1) | 1 | 0.287 | inactive
AKT1 (AKT serine/threonine kinase 1) | 2 | -0.684 | inactive
AKT1 (AKT serine/threonine kinase 1) | 3 | -1.14 | inactive
AKT1 (AKT serine/threonine kinase 1) | 4 | -0.931 | inactive
AKT1 (AKT serine/threonine kinase 1) | 5 | 0.141 | inactive
AKT1 (AKT serine/threonine kinase 1) | 6 | -0.868 | inactive
MAPK14 (mitogen-activated protein kinase 14) | 1 | -1.92 | active
MAPK14 (mitogen-activated protein kinase 14) | 2 | -0.779 | inactive
MAPK14 (mitogen-activated protein kinase 14) | 3 | -0.832 | inactive
MAPK14 (mitogen-activated protein kinase 14) | 4 | -1.7 | active
MAPK14 (mitogen-activated protein kinase 14) | 5 | -0.243 | inactive
MAPK14 (mitogen-activated protein kinase 14) | 6 | -0.512 | inactive
